The list does not hold the whole screen: it gathers some chemical classes. Not every dose and run of a compound is shown. T/C gives the treated animals as a percentage of the vehicle group. Where survival is the endpoint, this PubChem deposit counts one and a half times the control or more as active, and values a quarter to a half above the control carry no call in these data; other NCI protocols may use other cut-offs. Schedule codes are those of the source, taken here to give the interval after Q, in days (D) or hours (H), and the number of doses after X. Some T/C values are marked as having no survivor count here; that says nothing about deaths at the dose. Marks such as (2×) give the number of equal values in this list. Some doses were run more than once; their values stand side by side, smallest first.
System: P388 leukemia ip, CD2F1 mice, survival T/C
Test: NCI In Vivo Anticancer Drug Screen. Data for tumor model P388 Leukemia (intraperitoneal) in CD2F1 (CDF1) mice
Conditions: T/C endpoint: median survival time, schedule: Q01DX009 (ip), higher T/C = longer survival
[1] = dose: 1.0 mg/kg/injection, vehicle: saline with Tween-80
[2] = dose: 2.0 mg/kg/injection, vehicle: saline with Tween-80

For `CC(O)C1/C=C/C=C/C(=O)OC2CC3OC4C5OC5(C)C(O)CC4(COC(=O)C(O)C(C)CCO1)C2(C)C31CO1` (stereo not drawn), the T/C (dose: 0.16 mg/kg/injection, vehicle: saline + alcohol) was 150 % of control [survivor count not shown], the T/C (dose: 0.31 mg/kg/injection, vehicle: saline + alcohol) was 160 % of control [survivor count not shown] and the T/C (dose: 0.62 mg/kg/injection, vehicle: saline + alcohol) was 166 % of control [survivor count not shown]. The T/C (dose: 1.25 mg/kg/injection, vehicle: saline + alcohol, evaluated on day 35) was 229 % of control [survivor count not shown], the T/C (dose: 1.25 mg/kg/injection, vehicle: saline + alcohol, evaluated on day 45) was 200 % of control [survivor count not shown] and the T/C (dose: 2.5 mg/kg/injection, vehicle: saline + alcohol, evaluated on day 35) was 227 % of control [survivor count not shown]. The T/C (dose: 2.5 mg/kg/injection, vehicle: saline + alcohol, evaluated on day 45) was 206 % of control [survivor count not shown], the T/C (dose: 5.0 mg/kg/injection, vehicle: saline + alcohol, evaluated on day 35) was 321 % of control [survivor count not shown] and the T/C (dose: 5.0 mg/kg/injection, vehicle: saline + alcohol, evaluated on day 45) was 240 % of control [survivor count not shown]. For the same molecule, the T/C (dose: 10.0 mg/kg/injection, vehicle: saline + alcohol, evaluated on day 35) was 321 % of control [survivor count not shown] and the T/C (dose: 10.0 mg/kg/injection, vehicle: saline + alcohol, evaluated on day 45) was 268 % of control [survivor count not shown].

In the case of `CC1=CC2O[C@@H]3C[C@H]4OC(=O)/C=C\C=C\C56OCCC7(OC7C(=O)OCC2(CC1)[C@]4(C)[C@]31CO1)C5OC(O)C6O` (stereo partly drawn), the T/C (dose: 12.5 micrograms/kg/injection, vehicle: Klucel (hydroxypropylcellulose) (HPC)) was 118 % of control [survivor count not shown], the T/C (dose: 25.0 micrograms/kg/injection, vehicle: Klucel (hydroxypropylcellulose) (HPC)) was 119 % of control [survivor count not shown] and the T/C (dose: 50.0 micrograms/kg/injection, vehicle: Klucel (hydroxypropylcellulose) (HPC)) was 118 % of control [survivor count not shown].

`CC1=C[C@H]2O[C@@H]3[C@H](O)[C@@H](OC(=O)CCl)[C@](C)([C@@]2(CO)CC1)[C@]31CO1` was tested, and the T/C [1] was 134 % of control [survivor count not shown], the T/C [2] was 140 % of control [survivor count not shown] and the T/C (dose: 4.0 mg/kg/injection, vehicle: saline with Tween-80) was 152 % of control [survivor count not shown].

For `CC1=C[C@H]2O[C@@H]3[C@H](OC(=O)CCl)[C@@H](O)[C@](C)(C2(COC(=O)CCl)CC1)[C@@]31CO1` (stereo partly drawn), the T/C (dose: 0.75 mg/kg/injection, vehicle: saline + alcohol) was 119 % of control [survivor count not shown], the T/C [1] was 155 % of control [survivor count not shown] and the T/C (dose: 1.5 mg/kg/injection, vehicle: saline + alcohol) was 128 % of control [survivor count not shown]. For the same molecule, the T/C [2] was 150 % of control [survivor count not shown], the T/C (dose: 3.0 mg/kg/injection, vehicle: saline + alcohol) was 133 % of control [survivor count not shown] and the T/C (dose: 12.0 mg/kg/injection, vehicle: saline + alcohol) was 144 % of control [survivor count not shown].

With `C=C(C)C(=O)OC1C(=O)C2OC3C=C(C)C(=O)CC3(COC(C)=O)C1(C)C21CO1` (stereo not drawn) the T/C (dose: 0.1 mg/kg/injection, vehicle: Klucel (hydroxypropylcellulose) (HPC)) was 140 % of control [survivor count not shown], the T/C (dose: 0.2 mg/kg/injection, vehicle: Klucel (hydroxypropylcellulose) (HPC)) was 163 % of control [survivor count not shown] and the T/C (dose: 0.4 mg/kg/injection, vehicle: Klucel (hydroxypropylcellulose) (HPC)) was 163 % of control [survivor count not shown]. The T/C (dose: 0.8 mg/kg/injection, vehicle: Klucel (hydroxypropylcellulose) (HPC)) was 173 % of control [survivor count not shown] and the T/C (dose: 1.6 mg/kg/injection, vehicle: Klucel (hydroxypropylcellulose) (HPC)) was 210 % of control [survivor count not shown].

For `CC(=O)O[C@@H]1[C@@H](O)[C@H]2O[C@@H]3C=C(C)C(=O)[C@@H](O)[C@]3(CO)[C@]1(C)[C@]21CO1`, the T/C (dose: 0.2 mg/kg/injection, vehicle: saline) was 107 % of control [survivor count not shown], the T/C (dose: 0.4 mg/kg/injection, vehicle: saline) was 109 % of control [survivor count not shown] and the T/C (dose: 0.8 mg/kg/injection, vehicle: saline) was 119 % of control [survivor count not shown]. For the same molecule, the T/C (dose: 1.6 mg/kg/injection, vehicle: saline) was 127 % of control [survivor count not shown].

With `CC1=C[C@H]2O[C@H]3[C@H](O)[C@@H](OC(=O)CCl)[C@](C)([C@@]2(COC(=O)CCl)CC1)[C@@]31CO1` the T/C (dose: 0.5 mg/kg/injection, vehicle: saline + alcohol) was 142 [survivor count not shown] and 148 % of control [survivor count not shown], the T/C (dose: 1.0 mg/kg/injection, vehicle: saline + alcohol) was 151 [survivor count not shown] and 160 % of control [survivor count not shown] and the T/C (dose: 2.0 mg/kg/injection, vehicle: saline + alcohol) was 184 % of control [survivor count not shown] (2×). The T/C (dose: 4.0 mg/kg/injection, vehicle: saline + alcohol) was 210 % of control [survivor count not shown] (2×).

`CC1=CC2OC3CC(OC(=O)/C=C/C=C/C(OCCC4=CC(=O)OC4)C(C)O)C(C)(C2(CO)CC1)C31CO1` (stereo not drawn) was tested, and the T/C (dose: 1.0 mg/kg/injection, vehicle: distilled water + Tween-80) was 107 % of control [survivor count not shown], the T/C (dose: 2.0 mg/kg/injection, vehicle: distilled water + Tween-80) was 104 % of control [survivor count not shown] and the T/C (dose: 2.0 mg/kg/injection, vehicle: water) was 104 % of control [survivor count not shown]. The T/C (dose: 4.0 mg/kg/injection, vehicle: distilled water + Tween-80) was 104 % of control [survivor count not shown], the T/C (dose: 4.0 mg/kg/injection, vehicle: water) was 105 % of control [survivor count not shown] and the T/C (dose: 8.0 mg/kg/injection, vehicle: distilled water + Tween-80) was 122 % of control [survivor count not shown]. For the same molecule, the T/C (dose: 8.0 mg/kg/injection, vehicle: water) was 107 % of control [survivor count not shown], the T/C (dose: 16.0 mg/kg/injection, vehicle: distilled water + Tween-80) was 116 % of control [survivor count not shown] and the T/C (dose: 16.0 mg/kg/injection, vehicle: water) was 125 % of control [survivor count not shown]. The T/C (dose: 32.0 mg/kg/injection, vehicle: distilled water + Tween-80) was 120 % of control [survivor count not shown], the T/C (dose: 32.0 mg/kg/injection, vehicle: water) was 100 % of control [survivor count not shown] and the T/C (dose: 64.0 mg/kg/injection, vehicle: water) was 163 % of control [survivor count not shown].
